Results from publication PMC5643258.
These are yes or no findings as the source states them, for the method shown. Some binding calls cover weakened binding; strength is not graded here. Where a sequence is shown, tags or fusion partners need not be part of it.

T1: Myc-[His]6-tagged ADAM9 ectodomain (ECTO-His), soluble mouse ADAM9 ectodomain (mouse) (UniProt Q61072)
T1 sequence: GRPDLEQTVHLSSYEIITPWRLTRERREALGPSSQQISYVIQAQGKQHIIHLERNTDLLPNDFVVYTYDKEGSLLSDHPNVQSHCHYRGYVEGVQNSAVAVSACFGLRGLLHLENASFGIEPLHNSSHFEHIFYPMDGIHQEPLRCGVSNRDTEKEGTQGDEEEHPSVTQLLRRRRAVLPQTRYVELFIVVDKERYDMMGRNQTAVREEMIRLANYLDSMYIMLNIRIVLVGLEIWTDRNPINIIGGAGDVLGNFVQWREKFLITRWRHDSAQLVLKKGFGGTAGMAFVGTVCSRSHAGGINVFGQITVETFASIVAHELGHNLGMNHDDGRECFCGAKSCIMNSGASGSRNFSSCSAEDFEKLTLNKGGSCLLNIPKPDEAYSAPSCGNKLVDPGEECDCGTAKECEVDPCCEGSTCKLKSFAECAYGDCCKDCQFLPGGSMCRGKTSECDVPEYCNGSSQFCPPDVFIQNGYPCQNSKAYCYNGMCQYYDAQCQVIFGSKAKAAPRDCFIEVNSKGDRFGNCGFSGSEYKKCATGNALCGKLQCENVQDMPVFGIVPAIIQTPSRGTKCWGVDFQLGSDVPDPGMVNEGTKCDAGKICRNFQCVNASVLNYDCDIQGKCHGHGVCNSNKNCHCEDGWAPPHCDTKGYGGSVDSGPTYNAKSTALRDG

T2: ADAM9-Fc ectodomain (ECTO-Fc), soluble mouse ADAM9 ectodomain with C-terminal IgG Fc (mouse) (UniProt Q61072)
T2 sequence: T1 sequence

B1: ADAM9-Fc ectodomain (ECTO-Fc), soluble mouse ADAM9 ectodomain with C-terminal IgG Fc (Fc fusion, UniProt Q61072 30-698)
chain: T1 sequence
B2: Myc-[His]6-tagged ADAM9 ectodomain (ECTO-His), soluble mouse ADAM9 ectodomain (domain or fragment, UniProt Q61072 30-698)
chain: T1 sequence

What was measured:
[1] = target: T1, Myc-[His]6-tagged ADAM9 ectodomain (ECTO-His), soluble mouse ADAM9 ectodomain (mouse); assay: ELISA; one tagged ADAM9 ectodomain (ECTO-His or ECTO-Fc) coated at 2 ug/ml in 0.1 M Na2CO3 pH 9.8 overnight at 4 C on maxisorb plates; ADAM9 ectodomain with the other tag in solution for 1 h at RT in PBS, 1% Tween-20, 1% BSA, 1% milk powder; detected by tag-directed antibody and HRP secondary; both purified
[2] = target: T2, ADAM9-Fc ectodomain (ECTO-Fc), soluble mouse ADAM9 ectodomain with C-terminal IgG Fc (mouse); assay: as above

Binder	binding [1]	binding [2]
B1	binds	
B2		binds
